PubChem BioAssay AID1259425 – University of Nebraska Medical Center – 2018
The whole screen tested about 14,000 reagents; this is a random part of them. The numbers tell different reagents against one gene apart. Further read-outs or replicates are left out here. No sequences are given here. Not given: the time to read-out.

Screen: 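Compare each knockdown with KSR1 silencing using changes in marker transcripts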 (primary screen)
Cell system: HCT116 human colon cancer cells
Knock-down reagent: siRNA pool against human genes, 50 nM siRNA
Read-out: 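After 50 nM siRNA pool, branched-DNA assay measures six marker transcripts per well, minus blank, normalised to the geometric mean of two housekeeping transcripts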
Scale: BNIP3L mRNA: higher = more BNIP3L transcript after knockdown; NDRG1 mRNA: higher = more NDRG1 transcript after knockdown; BNIP3 mRNA: higher = more BNIP3 transcript after knockdown; ALDOC mRNA: higher = more ALDOC transcript after knockdown

| target | pool no. | BNIP3L mRNA, set 1 | NDRG1 mRNA, set 1 | BNIP3 mRNA, set 1 | ALDOC mRNA, set 1 |
| --- | --- | --- | --- | --- | --- |
| GABRD (GeneID 2563) | 1 | 0.134 | 0.212 | 0.333 | 0.0132 |
| CHST7 (GeneID 56548) | 1 | 0.223 | 0.358 | 0.543 | 0.0806 |
| ITGA7 (GeneID 3679) | 1 | 0.122 | 0.174 | 0.283 | 0.0158 |
| ZNF80 (GeneID 7634) | 1 | 0.0585 | 0.199 | 0.297 | 0.0195 |
| ERG (GeneID 2078) | 1 | 0.0374 | 0.0789 | 0.234 | 0.0284 |
| TCOF1 (GeneID 6949) | 1 | 0.0774 | 0.117 | 0.205 | 0.00768 |
| KRT81 (GeneID 3887) | 1 | 0.0713 | 0.089 | 0.228 | 0.0203 |
| SRP9 (GeneID 6726) | 1 | 0.0669 | 0.132 | 0.248 | 0.0228 |
| TMEM135 (GeneID 65084) | 1 | 0.222 | 0.146 | 0.294 | 0.0279 |
| FGF1 (GeneID 2246) | 1 | 0.0991 | 0.15 | 0.301 | 0.0447 |
| SLC35H1 (GeneID 51006) | 1 | 0.143 | 0.0799 | 0.296 | 0.0111 |
| MAP3K10 (GeneID 4294) | 1 | 0.173 | 0.347 | 0.389 | 0.0143 |
| SHPK (GeneID 23729) | 1 | 0.111 | 0.0845 | 0.205 | 0.00365 |
| CCDC90B (GeneID 60492) | 1 | 0.116 | 0.344 | 0.237 | 0.0119 |
| LY6H (GeneID 4062) | 1 | 0.0839 | 0.0728 | 0.234 | 0.0149 |
| HEXB (GeneID 3074) | 1 | 0.0719 | 0.0525 | 0.267 | 0.0213 |
| ICA1L (GeneID 130026) | 1 | 0.133 | 0.206 | 0.271 | 0.0347 |
| ICA1L (GeneID 130026) | 2 | 0.188 | 0.106 | 0.34 | 0.0422 |
| ACOX2 (GeneID 8309) | 1 | 0.382 | 0.452 | 0.522 | 0.0817 |
| MGAT4A (GeneID 11320) | 1 | 0.0744 | 0.0964 | 0.236 | 0.0339 |
| CEP19 (GeneID 84984) | 1 | 0.0666 | 0.0586 | 0.25 | 0.0377 |
| MAD2L1 (GeneID 4085) | 1 | 0.0766 | 0.643 | 0.343 | 0.0199 |
| RPS6KA1 (GeneID 6195) | 1 | 0.0799 | 0.121 | 0.218 | 0.0107 |
| ABHD6 (GeneID 57406) | 1 | 0.0839 | 0.072 | 0.158 | -0.000102 |
| PHKA2 (GeneID 5256) | 1 | 0.115 | 0.0354 | 0.31 | 0.00644 |
| ISLR2 (GeneID 57611) | 1 | 0.0903 | 0.0795 | 0.346 | 0.0282 |
| XCR1 (GeneID 2829) | 1 | 0.0793 | 0.209 | 0.318 | 0.0269 |
| TAX1BP1 (GeneID 8887) | 1 | 0.176 | 0.245 | 0.372 | 0.00992 |
| GMPPA (GeneID 29926) | 1 | 0.163 | 0.133 | 0.337 | 0.0326 |
| CRACD (GeneID 57482) | 1 | 0.15 | 0.422 | 0.28 | 0.0388 |
| REG4 (GeneID 83998) | 1 | 0.153 | 0.66 | 0.274 | 0.0458 |
| GOLGA2P5 (GeneID 55592) | 1 | 0.105 | 0.477 | 0.401 | 0.036 |
| SRP19 (GeneID 6728) | 1 | 0.117 | 0.156 | 0.238 | 0.0337 |
| KIR2DL5A (GeneID 57292) | 1 | 0.0845 | 0.0789 | 0.279 | 0.0339 |
| HSD17B2 (GeneID 3294) | 1 | 0.0947 | 0.196 | 0.284 | 0.0203 |
| IL36A (GeneID 27179) | 1 | 0.0531 | 0.0478 | 0.236 | 0.0182 |
| ANKRA2 (GeneID 57763) | 1 | 0.0802 | 0.0998 | 0.169 | 0.0174 |
| NDUFV1 (GeneID 4723) | 1 | 0.0932 | 0.25 | 0.258 | 0.0416 |
| TG (GeneID 7038) | 1 | 0.149 | 0.0892 | 0.241 | 0.0269 |
| SCCPDH (GeneID 51097) | 1 | 0.111 | 0.0898 | 0.318 | 0.0168 |
| ATOX1 (GeneID 475) | 1 | 0.0657 | 0.126 | 0.274 | 0.0187 |
| EPM2A (GeneID 7957) | 1 | 0.0344 | 0.216 | 0.197 | 0.0267 |
| ST3GAL5 (GeneID 8869) | 1 | 0.112 | 0.149 | 0.267 | 0.0311 |
| PRIM2 (GeneID 5558) | 1 | 0.0626 | 0.104 | 0.243 | 0.0166 |
| PAPOLB (GeneID 56903) | 1 | 0.13 | 0.37 | 0.498 | 0.0408 |
| GNL3L (GeneID 54552) | 1 | 0.0833 | 0.226 | 0.276 | 0.0211 |
| DNAH11 (GeneID 8701) | 1 | 0.078 | 0.147 | 0.286 | 0.00773 |
| CDS1 (GeneID 1040) | 1 | 0.0725 | 0.0945 | 0.218 | 0.0197 |
| CIAO2B (GeneID 51647) | 1 | 0.127 | 0.133 | 0.363 | 0.0277 |
| BMP15 (GeneID 9210) | 1 | 0.144 | 0.136 | 0.255 | 0.0429 |
| TNKS (GeneID 8658) | 1 | 0.098 | 0.15 | 0.332 | 0.0313 |
| WBSCR23 (GeneID 107986810) | 1 | 0.181 | 0.265 | 0.277 | 0.0225 |
| PNPLA8 (GeneID 50640) | 1 | 0.112 | 0.103 | 0.22 | 0.019 |
| SLC38A12 (GeneID 54868) | 1 | 0.141 | 0.313 | 0.487 | 0.0568 |
| GAB1 (GeneID 2549) | 1 | 0.0943 | 0.321 | 0.11 | 0.0443 |
| TPSB2 (GeneID 64499) | 1 | 0.0911 | 0.168 | 0.25 | 0.0229 |
| GAN (GeneID 8139) | 1 | 0.141 | 0.112 | 0.285 | 0.0135 |
| NDRG3 (GeneID 57446) | 1 | 0.0715 | 0.128 | 0.186 | 0.0282 |
| PRPS1L1 (GeneID 221823) | 1 | 0.0459 | 0.062 | 0.408 | 0.0109 |
| RBM4B (GeneID 83759) | 1 | 0.273 | 0.21 | 0.664 | 0.113 |
| SOX12 (GeneID 6666) | 1 | 0.303 | 0.612 | 0.356 | 0.0114 |
| NAPG (GeneID 8774) | 1 | 0.0278 | 0.342 | 0.254 | 0.0278 |
| ALLC (GeneID 55821) | 1 | 0.131 | 0.142 | 0.24 | 0.0336 |

Records listed so far whose target name starts with H or h:
| target | pool no. | BNIP3L mRNA, set 1 | NDRG1 mRNA, set 1 | BNIP3 mRNA, set 1 | ALDOC mRNA, set 1 |
| --- | --- | --- | --- | --- | --- |
| HEXB (GeneID 3074) | 1 | 0.0719 | 0.0525 | 0.267 | 0.0213 |
| HSD17B2 (GeneID 3294) | 1 | 0.0947 | 0.196 | 0.284 | 0.0203 |
